## Library screening results

Sequences of proteins named here, by UniProt entry; tags and fusion partners are left off.
UniProt E9BF75, entry or part of it: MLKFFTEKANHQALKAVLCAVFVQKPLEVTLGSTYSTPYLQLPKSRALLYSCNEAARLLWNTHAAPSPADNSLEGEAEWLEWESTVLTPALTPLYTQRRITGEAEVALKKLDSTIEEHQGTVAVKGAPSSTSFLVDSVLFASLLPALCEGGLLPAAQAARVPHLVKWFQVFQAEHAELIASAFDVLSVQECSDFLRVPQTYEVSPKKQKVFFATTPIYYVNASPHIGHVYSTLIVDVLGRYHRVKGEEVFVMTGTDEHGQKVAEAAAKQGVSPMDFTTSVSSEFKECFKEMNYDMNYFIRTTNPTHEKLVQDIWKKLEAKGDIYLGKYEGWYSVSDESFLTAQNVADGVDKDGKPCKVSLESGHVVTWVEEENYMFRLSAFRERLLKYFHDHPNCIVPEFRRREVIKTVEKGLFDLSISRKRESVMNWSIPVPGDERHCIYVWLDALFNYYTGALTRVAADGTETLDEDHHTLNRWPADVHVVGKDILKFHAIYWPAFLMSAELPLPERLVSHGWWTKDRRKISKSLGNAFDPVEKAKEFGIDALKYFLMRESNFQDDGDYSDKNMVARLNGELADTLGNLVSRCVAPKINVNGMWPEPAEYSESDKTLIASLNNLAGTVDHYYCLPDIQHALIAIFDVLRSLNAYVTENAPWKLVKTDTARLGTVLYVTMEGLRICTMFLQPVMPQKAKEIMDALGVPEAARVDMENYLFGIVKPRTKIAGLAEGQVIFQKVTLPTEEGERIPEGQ

The values are deposited in ChEMBL (CHEMBL3988442, “University of Dundee, Small-Polar-MMV Screening Library” (2021)).

LdMetRS: 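Methionyl-tRNA synthetase (putative), Leishmania donovani (UniProt E9BF75). Primary screen of methionyl-tRNA synthetase; the read-out is not stated. The test concentration is not given. The values are filed as inhibition. About 68,000 compounds were tested under these conditions; 0.035% (about 24) showed 50% or more at least once.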
Mtb heat-shock: 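Assay on Mycobacterium tuberculosis, filed only as a heat shock assay from Cornell; the read-out is not stated. The concentration is filed as 10 mM, unlikely as a test dose, so the dose is not known. Higher reads as stronger inhibition (inferred: compounds with an IC50 in retests scored well above the rest). About 69,000 compounds were tested under these conditions; 1.4% (about 930) showed 50% or more at least once.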

All values are in %.
The controls that fix the scale are not given in the record; negative values are as filed.
Compounds were drawn at random from those tested, without regard to their results.
A dash means the value is not listed here; it may have been measured.

| # | Compound | LdMetRS | Mtb heat-shock |
|---|---|---|---|
| 1 | `COc1cccc(NC(=O)Cc2c(C)nc3c(c2C)c(=O)[nH]n3C)c1` | 19.93% | 3.582% |
| 2 | `O=C(C1CC(F)(F)C1)N1C[C@@H]2CN(CC3CCCC3)CCO[C@@H]2C1` | -1.099% | - |
| 3 | `Fc1cccc(C2CCCCN2Cc2nc(-c3cnccn3)no2)c1` (centres unmarked) | - | -20.49% |
| 4 | `CC(C)c1nn(C)c(N(C)C)c1CNCc1ccnn1C` | -1.955% | -3.5% |
| 5 | `CCc1nc(C)c(C2CC(=O)Nc3c2c(C(C)(C)C)nn3C)[nH]1` (centres unmarked) | 1.045% | 1.19% |
| 6 | `COc1nccnc1N1CCCC2(C1)C(=O)N(C)c1ccccc12` (centres unmarked) | 3.361% | -10.95% |
| 7 | `CN(C)CC(c1ccccc1)N(C)C(=O)c1cccc(NCC(=O)O)c1` (centres unmarked) | 11.23% | 7.355% |
| 8 | `O=c1[nH]c(=O)n(CC(O)c2ccccc2Cl)cc1Cl` (centres unmarked) | 15.32% | -2.454% |
| 9 | `CCc1c(C)nn2c(O)cc(C3CCN(C(=O)C4CC4)C3)nc12` (centres unmarked) | 14.06% | -0.836% |
| 10 | `CS(=O)(=O)N1CCc2sc(C(=O)NCc3ccncc3)cc21` | 16.16% | -22.94% |
| 11 | `Cc1nc(C)n(CC(C)C(=O)N2CCC(N3CCC(O)CC3)CC2)n1` (centres unmarked) | 10.78% | -9.262% |
| 12 | `Cn1ccnc1COc1ccc(NC(=O)C2CCCO2)cc1` (centres unmarked) | 7.013% | -8.388% |
| 13 | `Cc1oc(-c2ccsc2)nc1CN1CC[C@@H]2CCCC[C@H]2C1` | 1.6% | - |
| 14 | `Cc1ccc(CN2CCC3(C2)C(=O)N(CC2CC2)c2ccccc23)s1` (centres unmarked) | 4.636% | - |
| 15 | `Cc1c(C(=O)N(C)C)cccc1N(C)S(C)(=O)=O` | 5.079% | 8.891% |
| 16 | `Cc1nc(N2CCCC2)nc2c1CN(C(=O)NC(C)C)CC2` | 18.27% | -4.156% |
| 17 | `CC1Cc2cc(-c3cncn3CC(=O)NC(C)(C)C)ccc2N1C.Cl` (centres unmarked) | - | -7.03% |
| 18 | `CNC(=O)[C@@H](c1ccccc1OC)N1CCC[C@H]1C(=O)NCCN(C)C` | 13.36% | - |
| 19 | `CNC(=O)[C@@H](c1ccccc1F)N1CCC[C@H]1C(=O)NC1CCCC1` | 7.492% | - |
| 20 | `Cc1nc(N2CCN(C)CC2)ncc1C(=O)N1CCN(C)CC1` | 12.58% | -21.58% |
| 21 | `CC(C)c1nn(C)c(Cl)c1CNC1CCOc2ccccc21.Cl` (centres unmarked) | - | 15.44% |
| 22 | `CCN(CC(C)C#N)C(=O)CNc1cc(Cl)ccc1C(N)=O` (centres unmarked) | 11.75% | 1.543% |
| 23 | `CCOc1ccnc(NCCc2nc(C)cc(=O)[nH]2)n1` | 11.02% | 4.961% |
| 24 | `CN1CCC2(CC1)C(=O)N(CC1CC1)c1ccccc12` | 10.44% | - |
| 25 | `CCC(=O)N1CC[C@@H]2[C@H](CC1)N(Cc1cccc(C)n1)CCS2(=O)=O` | 14.19% | - |
| 26 | `COCCC(=O)N1CCCN(Cc2nccn2C(C)C)CC1` | 16.33% | 3.617% |
| 27 | `O=C(c1cc2c(s1)CCOC2)N1CCCCC1Cn1cccn1` (centres unmarked) | 7.542% | -5.644% |
| 28 | `CC(C)C[C@@H]1N[C@H](C(=O)NC(C)C)Cc2c[nH]c3cccc1c23` | 15.93% | -4.336% |
| 29 | `Cc1cnc(N2C[C@@H]3[C@@H](C2)OCC(=O)N3CCN(C)C)nc1` | 17.39% | - |
| 30 | `O=C(NCCN1CCOCC1)c1ccn(-c2ccc3ccccn23)n1.O=C(O)C(F)(F)F` | - | -22.38% |
| 31 | `O=C(c1ccon1)N1CCCC(n2cncn2)C1` (centres unmarked) | 11.72% | 3.997% |
| 32 | `CC(CCN(C)C)NC(=O)N1CCSC(C)(C)C1` (centres unmarked) | 11.33% | -29.65% |
| 33 | `CN1CCN(CC(NCc2ccc(F)cc2)c2ccccc2)CC1` (centres unmarked) | 11.78% | -31.99% |
| 34 | `CCN(CC)CC1CN(Cc2nccs2)Cc2nccn2C1.O=C(O)C(F)(F)F.O=C(O)C(F)(F)F` (centres unmarked) | - | -2.105% |
| 35 | `CC(C)(C)c1ccn(C2(C(=O)O)CCN(c3ccnc(N)n3)CC2)n1` | 16.15% | 4.663% |
| 36 | `Cn1cccc1C(=O)N1CCC2(CC1)CN(c1ccccn1)CCO2.O=C(O)C(F)(F)F` | - | -15.09% |
| 37 | `O[C@H]1Cc2ccccc2[C@H]1Nc1ncccc1C(F)(F)F` | 14.97% | -3.103% |
| 38 | `c1ccc2oc(CCCN3CCCC(Cn4cncn4)C3)nc2c1` (centres unmarked) | 8.889% | -25.35% |
| 39 | `CC1(C)CC2(CCO1)NC(=O)c1cc(Br)ccc1-n1nnnc12` (centres unmarked) | 6.789% | -28.55% |
| 40 | `Cc1cn2nc(N3CCCC3Cn3cncn3)sc2n1` (centres unmarked) | 11.49% | 4.033% |
| 41 | `Cc1nc(CN2C(=O)C[C@@H]3[C@@H]2CCN3CC2CCOCC2)cs1` | 7.975% | - |
| 42 | `Cc1ccc(C(=O)Nc2cnn(CC(=O)NC3CCCC3)c2)c(=O)[nH]1` | 18.44% | 15.36% |
| 43 | `Cc1nc(N(C)C2CCCCC2)ncc1C(C)NC(=O)c1cccnc1` (centres unmarked) | 13.4% | -9.875% |
| 44 | `CC(C)c1cc(N[C@@H](CO)C(N)=O)n2nccc2n1` | 1.961% | -11.29% |
| 45 | `O=C(O)C(F)(F)F.[H][C@@]12CCN(c3ncccn3)C[C@]1(COc1nccc(C)n1)CCO2` | - | -7.497% |
| 46 | `[H][C@]12CCN(S(=O)(=O)Cc3ccccc3)[C@@]1([H])CC[C@@H](COCC)O2` | - | 8.084% |
| 47 | `CCOCC(=O)NCCC(O)c1ccoc1` (centres unmarked) | 16.82% | 38.74% |
| 48 | `O=C(c1cncc(N2CCC(O)(CO)CC2)n1)N1CCCC1` | 16.59% | -6.974% |
| 49 | `Cn1cc(NC(=O)c2cccc(C(F)(F)F)c2)c(=O)n(C)c1=O` | 13.83% | 3.222% |
| 50 | `Cc1nc(CN2CCN(C(=O)CCc3cccc(Cl)c3)CC2)no1` | 0.7117% | 4.508% |
| 51 | `Fc1cccc(CNCC2OCCc3cn(CC4CCOCC4)nc32)c1.O=C(O)C(F)(F)F` (centres unmarked) | - | -0.05793% |
| 52 | `CCOC(=O)CNC(=O)c1cccnc1Sc1cc(OC)ccc1OC` | -3.611% | 27.73% |
| 53 | `Cc1csc(CNC(=O)N(C)Cc2cnn(C)c2)n1` | 10.48% | 9.252% |
| 54 | `CCNC(=O)Nc1cccc(F)c1C(=O)NC1CCCC1` | 11.98% | 3.042% |
| 55 | `Oc1cccc(-c2cc(CC3(N(CC4CC4)CC4CC4)COC3)no2)c1` | 5.263% | -19.07% |
| 56 | `CCn1cnnc1CNC(=O)N(C)Cc1cccc(OC(F)F)c1` | 0% | -29.81% |
| 57 | `O=C(Cc1cccs1)N1C[C@@H]2OCCN(CC3CCCC3)[C@@H]2C1` | 18.5% | - |
| 58 | `COCC(=O)N1CC[C@H]2C[C@@H](c3nnc(C4CC4)o3)O[C@@H]2C1` | 13.81% | - |
| 59 | `[H][C@@]12C[C@@H](NC(=O)C(C)(C)C)[C@]1([H])CN(S(=O)(=O)c1ccc(C)cc1)C2` | - | -6.393% |
| 60 | `CS(=O)(=O)CCOCCNc1cncc(Br)c1` | 13.86% | 1.729% |
| 61 | `CCc1nc2c(c(NC3CC3)n1)CCN(C(=O)N1CCN(C)CC1)CC2` | 4.732% | -4.847% |
| 62 | `Cc1cc(C)cc(CN2CCN(Cc3cc(C#N)n(C)c3)CC2=O)c1` | 19.44% | 0.8263% |
| 63 | `CCc1csc(CCNC(=O)CC2CCN(C(C)C)CC2)n1` | -38.81% | -33.21% |
| 64 | `CNC(=O)CN1CCCC(Cc2ccccc2OC)C1` (centres unmarked) | 5.842% | 13.73% |
| 65 | `Cc1nnc(NCCn2nc(C)c(Cl)c2C)o1` | 7.161% | 8.565% |

Some entries from above, unchanged:

With CC(C)c1nn(C)c(N(C)C)c1CNCc1ccnn1C the screen gave LdMetRS: -1.955%; Mtb heat-shock: -3.5%.
With c1ccc2oc(CCCN3CCCC(Cn4cncn4)C3)nc2c1 (centres unmarked) the screen gave LdMetRS: 8.889%; Mtb heat-shock: -25.35%.
With COCCC(=O)N1CCCN(Cc2nccn2C(C)C)CC1 the screen gave LdMetRS: 16.33%; Mtb heat-shock: 3.617%.
With Cn1cc(NC(=O)c2cccc(C(F)(F)F)c2)c(=O)n(C)c1=O the screen gave LdMetRS: 13.83%; Mtb heat-shock: 3.222%.
With CS(=O)(=O)N1CCc2sc(C(=O)NCc3ccncc3)cc21 the screen gave LdMetRS: 16.16%; Mtb heat-shock: -22.94%.
With CCC(=O)N1CC[C@@H]2[C@H](CC1)N(Cc1cccc(C)n1)CCS2(=O)=O the screen gave LdMetRS: 14.19%.
With CCOC(=O)CNC(=O)c1cccnc1Sc1cc(OC)ccc1OC the screen gave LdMetRS: -3.611%; Mtb heat-shock: 27.73%.